Here are results for one compound from US11717517B2, “LSD dose identification” (Universitätsspital Basel, priority 2020, dated 2023).

The series concerns healthy subjects. In words: Blinding: retrospective identification of the LSD dose condition. It is filed as in vivo, human.

As to `CCN(CC)C(=O)[C@@H]1C=C2c3cccc4[nH]cc(c34)C[C@H]2N(C)C1` [LSD, D-lysergic acid diethylamide base], the retrospective dose identification entry was “distinguished from placebo and identified correctly or as 50 μg LSD by most participants” (dose of 25 μg); “identified as high doses but could not be distinguished” (doses of 100 μg and 200 μg).
